Data taken from the supplement of paper PMC6411743.
± gives the standard deviation of the averaged measurements. This is one part of the list.

Protein sequences, listed by entry. Tags and fused reporters are not part of them. Lines headed by an entry give the natural chain unless they say otherwise; changes in a name come on top.
UniProt P48047: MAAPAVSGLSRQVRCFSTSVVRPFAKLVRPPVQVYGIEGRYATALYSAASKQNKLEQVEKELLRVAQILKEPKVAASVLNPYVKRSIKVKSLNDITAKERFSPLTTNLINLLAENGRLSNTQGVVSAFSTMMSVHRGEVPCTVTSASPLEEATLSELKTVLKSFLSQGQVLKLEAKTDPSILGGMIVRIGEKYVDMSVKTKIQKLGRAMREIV
UniProt P31323, whole entry: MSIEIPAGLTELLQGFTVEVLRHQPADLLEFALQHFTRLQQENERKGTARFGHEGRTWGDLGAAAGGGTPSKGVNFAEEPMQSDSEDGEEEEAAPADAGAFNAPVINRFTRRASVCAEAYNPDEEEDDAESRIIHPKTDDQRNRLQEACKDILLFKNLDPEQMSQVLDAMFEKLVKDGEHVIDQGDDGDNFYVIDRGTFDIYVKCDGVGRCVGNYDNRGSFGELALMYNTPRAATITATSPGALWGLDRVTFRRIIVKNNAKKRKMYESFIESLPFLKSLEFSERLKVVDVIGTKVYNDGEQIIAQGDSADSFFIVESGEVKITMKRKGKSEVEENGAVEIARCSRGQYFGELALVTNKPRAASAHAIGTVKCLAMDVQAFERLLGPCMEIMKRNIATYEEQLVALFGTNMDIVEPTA
UniProt P34932: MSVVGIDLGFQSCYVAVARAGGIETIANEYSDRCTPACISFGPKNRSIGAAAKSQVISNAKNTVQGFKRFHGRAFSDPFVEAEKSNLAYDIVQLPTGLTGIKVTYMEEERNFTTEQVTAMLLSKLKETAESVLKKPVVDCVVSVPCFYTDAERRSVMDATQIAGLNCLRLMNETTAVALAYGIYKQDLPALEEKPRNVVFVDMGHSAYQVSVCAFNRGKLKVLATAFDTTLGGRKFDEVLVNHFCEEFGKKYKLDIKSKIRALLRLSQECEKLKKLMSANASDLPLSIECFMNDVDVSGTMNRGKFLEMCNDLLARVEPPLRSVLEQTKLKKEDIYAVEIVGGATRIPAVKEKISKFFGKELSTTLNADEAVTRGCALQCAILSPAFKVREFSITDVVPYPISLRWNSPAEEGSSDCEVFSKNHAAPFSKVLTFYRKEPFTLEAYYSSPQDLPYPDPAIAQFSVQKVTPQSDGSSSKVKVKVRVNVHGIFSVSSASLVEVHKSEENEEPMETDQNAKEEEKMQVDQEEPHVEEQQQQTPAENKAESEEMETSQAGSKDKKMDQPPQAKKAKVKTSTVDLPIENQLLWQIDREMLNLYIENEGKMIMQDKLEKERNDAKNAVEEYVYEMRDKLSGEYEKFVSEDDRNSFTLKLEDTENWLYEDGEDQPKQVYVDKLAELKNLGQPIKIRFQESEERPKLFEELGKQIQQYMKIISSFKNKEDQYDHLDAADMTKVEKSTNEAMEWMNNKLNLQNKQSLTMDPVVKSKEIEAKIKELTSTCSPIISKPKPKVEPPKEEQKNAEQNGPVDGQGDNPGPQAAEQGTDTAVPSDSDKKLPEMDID
UniProt P42566: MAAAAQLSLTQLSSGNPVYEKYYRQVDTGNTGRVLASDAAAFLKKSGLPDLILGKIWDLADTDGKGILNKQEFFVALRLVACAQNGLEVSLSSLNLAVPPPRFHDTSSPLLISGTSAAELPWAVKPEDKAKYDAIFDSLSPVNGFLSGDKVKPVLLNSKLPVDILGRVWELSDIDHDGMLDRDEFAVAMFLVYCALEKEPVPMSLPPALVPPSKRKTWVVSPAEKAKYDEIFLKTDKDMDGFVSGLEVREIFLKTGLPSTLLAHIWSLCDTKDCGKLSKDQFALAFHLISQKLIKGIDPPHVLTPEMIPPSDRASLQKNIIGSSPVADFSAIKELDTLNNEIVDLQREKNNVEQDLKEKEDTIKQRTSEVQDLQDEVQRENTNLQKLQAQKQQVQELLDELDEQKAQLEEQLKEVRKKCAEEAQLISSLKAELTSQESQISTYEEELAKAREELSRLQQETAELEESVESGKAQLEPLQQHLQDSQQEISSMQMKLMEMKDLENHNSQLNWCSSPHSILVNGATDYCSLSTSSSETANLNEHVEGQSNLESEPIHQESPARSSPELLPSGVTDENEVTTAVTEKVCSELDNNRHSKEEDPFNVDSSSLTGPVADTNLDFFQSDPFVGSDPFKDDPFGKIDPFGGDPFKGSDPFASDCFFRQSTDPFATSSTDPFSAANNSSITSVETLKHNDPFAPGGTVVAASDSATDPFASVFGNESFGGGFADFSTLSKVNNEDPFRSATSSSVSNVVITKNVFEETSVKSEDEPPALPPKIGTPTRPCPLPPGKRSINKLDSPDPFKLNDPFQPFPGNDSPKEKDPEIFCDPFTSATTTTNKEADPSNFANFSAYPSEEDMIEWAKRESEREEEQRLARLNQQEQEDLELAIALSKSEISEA
UniProt P47756, whole entry: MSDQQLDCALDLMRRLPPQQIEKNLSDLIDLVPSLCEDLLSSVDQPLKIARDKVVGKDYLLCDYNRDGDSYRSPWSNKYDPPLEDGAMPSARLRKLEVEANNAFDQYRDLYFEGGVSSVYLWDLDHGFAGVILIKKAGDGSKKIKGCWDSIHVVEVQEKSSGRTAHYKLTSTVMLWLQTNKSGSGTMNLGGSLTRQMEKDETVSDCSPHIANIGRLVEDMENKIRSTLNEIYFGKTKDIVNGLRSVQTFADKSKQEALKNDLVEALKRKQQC
UniProt P38398, whole entry, looked up: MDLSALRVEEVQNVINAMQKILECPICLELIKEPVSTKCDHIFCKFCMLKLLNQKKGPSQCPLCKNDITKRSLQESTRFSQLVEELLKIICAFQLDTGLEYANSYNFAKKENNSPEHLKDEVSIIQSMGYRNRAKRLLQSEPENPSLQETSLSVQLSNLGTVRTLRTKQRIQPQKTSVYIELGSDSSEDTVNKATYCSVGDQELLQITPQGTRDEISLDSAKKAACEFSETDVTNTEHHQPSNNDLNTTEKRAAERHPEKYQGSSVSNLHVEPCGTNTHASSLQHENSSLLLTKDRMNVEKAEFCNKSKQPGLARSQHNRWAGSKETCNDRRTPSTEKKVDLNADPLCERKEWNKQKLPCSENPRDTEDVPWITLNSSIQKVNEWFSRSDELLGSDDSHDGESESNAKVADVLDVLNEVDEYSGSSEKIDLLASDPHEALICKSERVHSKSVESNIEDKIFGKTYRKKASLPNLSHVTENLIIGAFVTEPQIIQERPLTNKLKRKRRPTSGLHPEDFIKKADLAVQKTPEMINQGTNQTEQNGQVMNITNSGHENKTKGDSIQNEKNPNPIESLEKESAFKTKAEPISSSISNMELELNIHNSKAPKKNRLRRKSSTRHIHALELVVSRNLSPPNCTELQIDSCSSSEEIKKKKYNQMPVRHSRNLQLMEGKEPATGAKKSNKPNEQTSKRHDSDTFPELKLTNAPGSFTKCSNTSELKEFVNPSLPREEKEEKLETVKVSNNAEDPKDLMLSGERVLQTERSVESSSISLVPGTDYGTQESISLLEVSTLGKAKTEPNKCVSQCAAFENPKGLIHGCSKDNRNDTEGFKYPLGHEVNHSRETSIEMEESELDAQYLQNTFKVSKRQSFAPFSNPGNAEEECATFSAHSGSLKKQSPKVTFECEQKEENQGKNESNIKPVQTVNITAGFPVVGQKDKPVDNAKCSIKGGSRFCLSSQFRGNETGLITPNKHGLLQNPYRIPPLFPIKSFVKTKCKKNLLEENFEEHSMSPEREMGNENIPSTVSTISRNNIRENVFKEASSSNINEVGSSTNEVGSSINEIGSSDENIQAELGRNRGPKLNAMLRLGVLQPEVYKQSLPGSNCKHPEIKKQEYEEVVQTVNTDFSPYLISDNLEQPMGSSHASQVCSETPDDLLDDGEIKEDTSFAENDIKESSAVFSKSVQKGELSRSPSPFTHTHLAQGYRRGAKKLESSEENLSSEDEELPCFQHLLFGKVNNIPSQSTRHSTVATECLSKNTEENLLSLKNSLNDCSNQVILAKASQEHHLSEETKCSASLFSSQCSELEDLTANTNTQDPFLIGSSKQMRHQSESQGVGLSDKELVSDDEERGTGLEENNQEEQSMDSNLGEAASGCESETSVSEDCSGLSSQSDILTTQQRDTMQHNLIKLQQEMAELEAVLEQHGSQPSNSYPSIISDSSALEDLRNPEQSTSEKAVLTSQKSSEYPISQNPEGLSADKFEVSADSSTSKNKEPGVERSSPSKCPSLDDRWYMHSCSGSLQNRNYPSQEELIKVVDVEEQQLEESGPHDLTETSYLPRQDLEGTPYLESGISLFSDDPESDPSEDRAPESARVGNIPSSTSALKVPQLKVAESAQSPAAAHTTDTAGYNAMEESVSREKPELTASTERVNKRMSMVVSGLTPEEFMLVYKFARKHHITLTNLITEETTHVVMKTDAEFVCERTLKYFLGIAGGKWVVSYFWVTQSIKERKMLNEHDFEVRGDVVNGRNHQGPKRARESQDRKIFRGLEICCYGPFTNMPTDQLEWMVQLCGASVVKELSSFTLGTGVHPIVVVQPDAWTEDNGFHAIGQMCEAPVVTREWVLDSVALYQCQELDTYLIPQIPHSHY
UniProt P42785: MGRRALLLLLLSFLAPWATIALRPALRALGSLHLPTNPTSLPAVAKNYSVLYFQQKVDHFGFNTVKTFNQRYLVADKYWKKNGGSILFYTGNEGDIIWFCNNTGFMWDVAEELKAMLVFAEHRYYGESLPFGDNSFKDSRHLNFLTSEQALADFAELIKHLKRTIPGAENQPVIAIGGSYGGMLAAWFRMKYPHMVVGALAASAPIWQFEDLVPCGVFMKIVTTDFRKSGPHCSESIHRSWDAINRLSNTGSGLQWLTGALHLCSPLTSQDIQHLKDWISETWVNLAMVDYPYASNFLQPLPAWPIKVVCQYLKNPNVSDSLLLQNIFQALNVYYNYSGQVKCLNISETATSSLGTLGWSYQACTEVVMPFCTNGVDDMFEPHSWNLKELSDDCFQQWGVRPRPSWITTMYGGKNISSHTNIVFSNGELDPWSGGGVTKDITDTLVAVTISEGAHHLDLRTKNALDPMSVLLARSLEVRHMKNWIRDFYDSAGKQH
UniProt P28838: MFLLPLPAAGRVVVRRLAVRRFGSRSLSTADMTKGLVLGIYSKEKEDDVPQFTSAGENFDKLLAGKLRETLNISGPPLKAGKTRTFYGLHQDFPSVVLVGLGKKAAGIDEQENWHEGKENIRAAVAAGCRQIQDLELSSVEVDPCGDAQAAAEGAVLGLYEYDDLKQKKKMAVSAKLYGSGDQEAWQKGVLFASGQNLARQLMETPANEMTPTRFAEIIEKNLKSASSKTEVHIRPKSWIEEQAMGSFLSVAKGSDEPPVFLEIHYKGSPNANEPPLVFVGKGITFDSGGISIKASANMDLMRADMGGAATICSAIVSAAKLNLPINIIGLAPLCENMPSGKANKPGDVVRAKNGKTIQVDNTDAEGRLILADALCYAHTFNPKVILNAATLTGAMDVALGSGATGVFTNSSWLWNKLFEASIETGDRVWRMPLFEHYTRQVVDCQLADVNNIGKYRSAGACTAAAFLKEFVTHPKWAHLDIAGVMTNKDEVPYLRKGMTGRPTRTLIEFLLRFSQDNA
UniProt P34896: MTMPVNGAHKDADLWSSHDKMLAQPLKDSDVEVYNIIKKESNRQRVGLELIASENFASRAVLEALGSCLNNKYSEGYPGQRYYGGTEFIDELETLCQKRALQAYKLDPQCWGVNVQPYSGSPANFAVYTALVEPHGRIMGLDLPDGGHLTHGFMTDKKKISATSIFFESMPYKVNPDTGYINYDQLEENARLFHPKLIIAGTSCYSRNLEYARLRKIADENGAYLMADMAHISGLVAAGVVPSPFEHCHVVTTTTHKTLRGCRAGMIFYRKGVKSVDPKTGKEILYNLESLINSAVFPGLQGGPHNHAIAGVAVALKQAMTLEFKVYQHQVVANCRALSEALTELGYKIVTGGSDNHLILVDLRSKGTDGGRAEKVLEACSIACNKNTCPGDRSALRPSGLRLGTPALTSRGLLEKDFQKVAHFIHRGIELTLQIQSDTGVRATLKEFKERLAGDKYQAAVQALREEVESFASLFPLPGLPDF
UniProt P49137, whole entry, looked up: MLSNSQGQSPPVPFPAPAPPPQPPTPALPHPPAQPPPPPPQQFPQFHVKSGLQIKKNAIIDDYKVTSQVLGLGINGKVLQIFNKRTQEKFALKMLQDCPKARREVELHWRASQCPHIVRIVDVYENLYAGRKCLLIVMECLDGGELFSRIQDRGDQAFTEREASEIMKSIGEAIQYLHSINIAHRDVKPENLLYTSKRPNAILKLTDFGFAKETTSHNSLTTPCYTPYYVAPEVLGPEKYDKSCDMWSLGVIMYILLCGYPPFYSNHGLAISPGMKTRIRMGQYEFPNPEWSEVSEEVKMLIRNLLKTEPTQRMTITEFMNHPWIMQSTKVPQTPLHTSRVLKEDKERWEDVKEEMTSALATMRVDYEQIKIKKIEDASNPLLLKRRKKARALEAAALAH

What follows are targets tested with Nc1nc2c(ncn2[C@@H]2O[C@H](COP(=O)(O)OP(=O)(O)OP(=O)(O)O)[C@@H](O)[C@H]2O)c(=O)[nH]1 [guanosine triphosphate] (assay: NP40-soluble protein abundance relative to vehicle (solubility fold change) (ratio); higher = more soluble protein in presence of GTP). Details: concentration: 0.1mM.
Summary of the method: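 Eight concentrations, 0.1 to 10 mM, were tested on Jurkat crude lysate for 10 min at room temperature and then 3 min at 37 °C, in three independent experiments. The lysate was solubilised with 0.8% NP40 and benzonase, ultracentrifuged, and the supernatant TMT-labelled for LC-MS/MS. Each value is the fold change against the detergent-processed vehicle in its own replicate, from vsn-normalised intensities.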

In order of rising NP40-soluble protein abundance:
1. UniProt P48047  0.825 ± 0.17
2. RPS19 (UniProt P39019)  0.837 ± 0.13
3. STIP1 (UniProt P31948)  0.857 ± 0.02
4. PRKAR2B (UniProt P31323)  0.914 ± 0.015
5. UniProt P33316 and related entries  0.922 ± 0.048
6. MTHFS (UniProt P49914)  0.926 ± 0.043
7. UniProt P29590 and related entries  0.929 ± 0.072
8. P28062 and related entries (UniProt X5D2R7+P28062)  0.939 ± 0.033
9. P42166 and related entries (UniProt P42167+P42166)  0.949 ± 0.034
10. UniProt P49366 and related entries  0.949 ± 0.078
11. HIBADH (UniProt P31937)  0.951 ± 0.062
12. HSPA4 (UniProt P34932)  0.951 ± 0.05
13. EPS15 (UniProt P42566)  0.963 ± 0.079
14. UniProt P29374 and related entries  0.965 ± 0.053
15. UniProt P47756-2  0.967 ± 0.058
16. MYH9 (UniProt P35579)  0.968 ± 0.067
17. UniProt P48960 and related entries  0.971 ± 0.076
18. UniProt P38398 and related entries  0.971 ± 0.076
19. PRCP (UniProt P42785)  0.972 ± 0.02
20. UniProt P48426 and related entries  0.972 ± 0.05
21. CRKL (UniProt P46109)  0.973 ± 0.029
22. UniProt P45985 and related entries  0.975 ± 0.05
23. UniProt P28838 and related entries  0.976 ± 0.034
24. RPL21 (UniProt P46778)  0.981 ± 0.092
25. UniProt P34896 and related entries  0.987 ± 0.043
26. HADHA (UniProt P40939)  1 ± 0.026
27. EIF2S3 (UniProt P41091)  1.02 ± 0.024
28. UniProt P42684 and related entries  1.03 ± 0.055
29. AKT1 (UniProt P31749)  1.03 ± 0.025
30. UniProt P49336 and related entries  1.04 ± 0.14
31. UniProt P46736 and related entries  1.04 ± 0.029
32. MTIF2 (UniProt P46199)  1.04 ± 0.038
33. UniProt P46459 and related entries  1.05 ± 0.05
34. UniProt P49757 and related entries  1.08 ± 0.034
35. MAPKAPK2 (UniProt P49137)  1.1 ± 0.094
36. MTOR (UniProt P42345)  1.12 ± 0.079
37. SLC7A1 (UniProt P30825)  1.16 ± 0.18
38. UniProt P46934-4  1.17 ± 0.1

Same assay, conditions: concentration: 0.5mM

In order of rising NP40-soluble protein abundance:
1. UniProt P48047  0.839 ± 0.14
2. STIP1 (UniProt P31948)  0.864 ± 0.031
3. RPS19 (UniProt P39019)  0.891 ± 0.15
4. UniProt P33316 and related entries  0.924 ± 0.068
5. UniProt P29590 and related entries  0.925 ± 0.07
6. MAPKAPK2 (UniProt P49137)  0.939 ± 0.048
7. PRKAR2B (UniProt P31323)  0.946 ± 0.045
8. EPS15 (UniProt P42566)  0.95 ± 0.065
9. UniProt P48960 and related entries  0.957 ± 0.091
10. MTHFS (UniProt P49914)  0.957 ± 0.032
11. UniProt P49366 and related entries  0.958 ± 0.056
12. CRKL (UniProt P46109)  0.958 ± 0.058
13. P42166 and related entries (UniProt P42167+P42166)  0.973 ± 0.039
14. UniProt P45985 and related entries  0.977 ± 0.033
15. P28062 and related entries (UniProt X5D2R7+P28062)  0.98 ± 0.076
16. HSPA4 (UniProt P34932)  0.98 ± 0.058
17. UniProt P38398 and related entries  0.984 ± 0.061
18. UniProt P47756-2  0.985 ± 0.056
19. UniProt P28838 and related entries  0.991 ± 0.06
20. HIBADH (UniProt P31937)  0.993 ± 0.025
21. AKT1 (UniProt P31749)  0.998 ± 0.037
22. UniProt P48426 and related entries  0.999 ± 0.027
23. RPL21 (UniProt P46778)  1 ± 0.082
24. MYH9 (UniProt P35579)  1 ± 0.071
25. PRCP (UniProt P42785)  1.01 ± 0.05
26. UniProt P34896 and related entries  1.01 ± 0.034
27. UniProt P42684 and related entries  1.02 ± 0.043
28. UniProt P46736 and related entries  1.02 ± 0.049
29. UniProt P29374 and related entries  1.04 ± 0.035
30. HADHA (UniProt P40939)  1.04 ± 0.053
31. EIF2S3 (UniProt P41091)  1.05 ± 0.045
32. UniProt P46459 and related entries  1.06 ± 0.061
33. SLC7A1 (UniProt P30825)  1.07 ± 0.085
34. MTOR (UniProt P42345)  1.07 ± 0.072
35. MTIF2 (UniProt P46199)  1.08 ± 0.12
36. UniProt P46934-4  1.08 ± 0.05
37. UniProt P49336 and related entries  1.09 ± 0.1
38. UniProt P49757 and related entries  1.1 ± 0.02

Same assay, conditions: concentration: 1mM

In order of rising NP40-soluble protein abundance:
1. AKT1 (UniProt P31749)  0.829 ± 0.022
2. MTHFS (UniProt P49914)  0.846 ± 0.07
3. PRKAR2B (UniProt P31323)  0.857 ± 0.069
4. UniProt P33316 and related entries  0.911 ± 0.063
5. P28062 and related entries (UniProt X5D2R7+P28062)  0.944 ± 0.13
6. UniProt P45985 and related entries  0.944 ± 0.069
7. UniProt P48426 and related entries  0.949 ± 0.029
8. HSPA4 (UniProt P34932)  0.949 ± 0.056
9. PRCP (UniProt P42785)  0.95 ± 0.041
10. UniProt P49366 and related entries  0.951 ± 0.069
11. UniProt P29590 and related entries  0.953 ± 0.09
12. UniProt P28838 and related entries  0.957 ± 0.043
13. CRKL (UniProt P46109)  0.967 ± 0.092
14. HADHA (UniProt P40939)  0.967 ± 0.039
15. EIF2S3 (UniProt P41091)  0.967 ± 0.015
16. UniProt P34896 and related entries  0.97 ± 0.015
17. UniProt P47756-2  0.972 ± 0.052
18. UniProt P38398 and related entries  0.977 ± 0.077
19. EPS15 (UniProt P42566)  0.979 ± 0.082
20. HIBADH (UniProt P31937)  0.986 ± 0.035
21. UniProt P46736 and related entries  0.99 ± 0.018
22. MTIF2 (UniProt P46199)  1 ± 0.087
23. STIP1 (UniProt P31948)  1.01 ± 0.028
24. MYH9 (UniProt P35579)  1.01 ± 0.074
25. P42166 and related entries (UniProt P42167+P42166)  1.02 ± 0.037
26. UniProt P48960 and related entries  1.02 ± 0.088
27. MTOR (UniProt P42345)  1.02 ± 0.062
28. UniProt P48047  1.02 ± 0.21
29. MAPKAPK2 (UniProt P49137)  1.04 ± 0.062
30. UniProt P29374 and related entries  1.04 ± 0.05
31. UniProt P46459 and related entries  1.04 ± 0.076
32. UniProt P46934-4  1.04 ± 0.063
33. RPL21 (UniProt P46778)  1.05 ± 0.12
34. SLC7A1 (UniProt P30825)  1.06 ± 0.17
35. UniProt P42684 and related entries  1.09 ± 0.052
36. UniProt P49336 and related entries  1.1 ± 0.14
37. UniProt P49757 and related entries  1.11 ± 0.027
38. RPS19 (UniProt P39019)  1.13 ± 0.38
